Measurements: article PMC8982737, “Discovery of S-217622, a Noncovalent Oral SARS-CoV-2 3CL Protease Inhibitor Clinical Candidate for Treating COVID-19” (Journal of Medicinal Chemistry, 2022)

Assay: in vitro
Details: African green monkey

CCC(CC)COC(=O)[C@H](C)N[P@](=O)(OC[C@H]1O[C@@](C#N)(c2ccc3c(N)ncnn23)[C@H](O)[C@@H]1O)Oc1ccccc1 [Remdesivir, reference compound]
CC50: > 100 µM
